Results: PubChem BioAssay AID2734 (National Center for Advancing Translational Sciences (NCATS), 2010)
This list was built around the results that the source calls inconclusive (neither active nor inactive); the mix of calls is not that of the screen. Potencies beside an inconclusive call are fits to weak or partial responses and may not hold up. Activity calls are given as the source filed them. Calls follow the shape of the dose curve; as a rule, active = well fitted inhibition curve with a large enough effect; inconclusive = small, poorly fitted or top-dose-only effect, or effect the other way; inactive = no such curve, though single readings can be large or run the other way.

Experiment: High Content Assay for Compounds that inhibit the Assembly of the Perinucleolar Compartment: DNA Intercalation/PicoGreen Displacement Assay
Settings: fluorescence (intercalation counter-screen); series mostly up to 57.1 µM
Source text: High Content Assay for Compounds that inhibit the Assembly of the Perinucleolar Compartment
NIH Chemical Genomics Center [NCGC]
NIH Molecular Libraries Probe Centers Network [MLPCN]
Assay Submitter (PI): Sui Huang, Northwestern University, Feinberg School of Medicine, Cell and Molecular Biology, Chicago, Illinois.
The perinucleolar compartment (PNC) is a non-membrane-bound nuclear subdomain that is associated with but structurally distinct from the nucleolus. The PNC is a heritable trait, in which the number of PNCs per cell in daughter cells often mimics that of their mother cells. The PNC is heterogeneous in shape, is stable through interphase, disassembles during mitosis, and reassembles in early G1. The PNC is concentrated with newly synthesized RNA polymerase III (pol III) RNAs (MRP RNA, RNAse P H1 RNA, hY RNAs[hY1, 2, 5], Alu RNA, and SRP [7SL] RNA) and RNA binding proteins (nucleolin, PTB, CUG-BP, KSRP, Raver1, Raver2, and Rod).
Extensive in vitro studies have shown that the PNC is unique to tumor cells and preferentially forms in tumor cells derived from solid tissues. Examination of cancer cell lines from various origins and malignant capacities has shown that PNC prevalence correlates with the malignancy of tumors and has the potential to be developed as a pan-cancer prognostic marker.
Although the PNC is associated with a DNA locus and a handful of components have been identified, much remains to be investigated regarding the structure and function of the PNC and its mechanistic link to cancer. We have previously shown that PNC prevalence reduction is a valid strategy to identify compounds that can be used to study the structure and function of the PNC. It is necessary, however, to create a screening platform that is able to test a large number of compounds in an automated fashion. Here we report the development and robustness of an automated whole-cell phenotypic image-based screening assay that is capable of identifying such compounds.
Therefore, we conducted a DNA intercalation/displacement assay on the lead candidates in order to exclude compounds with this mechanism of action. PicoGreen is a DNA intercalator that becomes excitable at 488 nm and emits at 520 nm when bound to DNA. Compounds which displace the dye will decrease fluorescence intensity and were considered DNA intercalators/displacers. In order to rule out potential fluorescence artifacts, a measurement of compound plus DNA only was also calculated.
1. A supercoiled plasmid (pBR322) was diluted to 200 ng/ml in TE and 2 ul was dispensed into 1536 well black plates Multidrop Combi.(ThermoFisher).
2. Followup compounds dissolved in 100% DMSO were transferred using a pintool (23 nl).
3. Compounds were incubated in the presence of DNA for 30 minutes at room temperature.
4. A baseline signal was measured using an Envision PMT based plate reader using a 488 nm excitation filter and a 520 nm emission filter.
5. The PicoGreen dye (Invitrogen) was diluted in TE and 2 ul/well was dispensed to the 1536 well plate using a Multidrop Combi.
6. Plates were incubated at 37 C for 10 minutes prior to being read on the envision plate reader. 100 ng/ml of Propidium Iodide was used as the positive intercalation control.

Compound | Potency
Cc1cccc(NC2=C/C(=N/S(=O)(=O)c3cccs3)c3ccccc3C2=O)c1 | inconclusive: 3.16 µM [inhibitor, full curve]
Cc1oc(-c2ccccc2Cl)nc1CSCC(=O)N1CCCC1 | inconclusive: 31.6 µM [activator, partial curve]
CNC(=S)N/N=C/c1cn(CCOc2ccccc2OC)c2ccccc12 | inconclusive: 3.16 µM [inhibitor, full curve, poor fit]
CSc1nnc2c3ccccc3n(CCc3ccccc3)c2n1 | inactive
COc1cc(/C=N/NC(=O)c2ccc(CSc3nc4ccccc4[nH]3)cc2)cc(OC)c1OC | inconclusive: 39.8 µM [activator, partial curve]
Cc1sc2nc(C3CC3)nc(SCC(=O)N3c4ccccc4CC3C)c2c1C (stereo not given) | inconclusive: 39.8 µM [activator, partial curve]
Cc1c(C#N)c(N)nc2c3c(sc12)NC(=O)CC3c1ccc(F)cc1 (stereo not given) | inconclusive: 44.7 µM [activator, partial curve, poor fit]
Cc1ccc(C(C)C)c(OCc2ccc(C(=O)N/N=C/c3ccc(O)cc3O)cc2)c1 | inconclusive: 15.8 µM [activator, full curve]
CCN(CC)S(=O)(=O)c1ccc(C2=NOC3(C2)N(C)c2ccccc2C3(C)C)cc1 (stereo not given) | inconclusive: 39.8 µM [activator, partial curve]
O=C(Cc1coc2ccc3ccccc3c12)Nc1nnc(C2CC2)s1 | inconclusive: 39.8 µM [activator, partial curve]
Nc1ccc2c(c1)C(=O)C(=O)c1ccccc1-2 | active: 12.6 µM
Cc1cc(C)c(S(=O)(=O)/N=C2/C=C(Sc3ncn[nH]3)C(=O)c3ccccc32)cc1C | active: 12.6 µM
COc1ccccc1NC1=C(N2CCCCC2)C(=O)c2ccccc2C1=O | inconclusive: 12.6 µM [inhibitor, partial curve]
CCN(CC)c1ccc(N=Cc2ccccc2[N+](=O)[O-])cc1 | active: 3.16 µM
CC(/C=C/c1ccccc1)=N/NC(=O)c1cc([N+](=O)[O-])cc([N+](=O)[O-])c1 | inactive
Cc1cc[n+](C2=C([O-])c3ccccc3C(=O)/C2=N\S(=O)(=O)c2cccs2)cc1C | inconclusive: 14.1 µM [inhibitor, full curve, poor fit]
CCc1ccc(S(=O)(=O)/N=C2/C=C(Sc3ncn[nH]3)C(=O)c3ccccc32)cc1 | inconclusive: 14.1 µM [inhibitor, full curve]
CCN(CC)C(=O)N1c2ccccc2C=Cc2ccccc21 | inconclusive: 35.5 µM [activator, partial curve, poor fit]
Cc1cc(SC(C)C(=O)Nc2ncc(Cl)cc2Cl)nc2ccccc12 (stereo not given) | inconclusive: 39.8 µM [activator, partial curve]
Cc1cc(C(=O)N/N=C/c2cc(Br)cc(Br)c2OC(=O)c2ccccc2)n[nH]1 | inconclusive: 35.5 µM [activator, partial curve]

Compound | Potency
Nc1cccc(-c2nc3ccc(N)cc3s2)c1 | inactive
O=C(NC(CSCc1ccccc1)C(=O)N/N=C/c1ccc(O)cc1O)c1ccc([N+](=O)[O-])cc1 (stereo not given) | inconclusive: 6.31 µM [inhibitor, full curve]
CNC1=C(N(C(C)=O)c2ccc(Br)cc2)C(=O)c2ccccc2C1=O | inconclusive: 8.91 µM [inhibitor, full curve, poor fit]
O=C(N/N=C/c1ccccc1O)c1cccc(C(F)(F)F)c1 | inconclusive: 39.8 µM [activator, partial curve]
Cc1c(NC(=O)CSc2nnc3c4ccccc4n(CCc4ccccc4)c3n2)c(=O)n(-c2ccccc2)n1C | inconclusive: 28.2 µM [activator, partial curve]
CCOC(=O)NC1(Nc2ccc(C)cc2)Oc2ccccc2O1 | inactive
C/C(N)=C(/C#N)C(=O)COC(=O)c1cc(C)n(-c2ccc(F)cc2)c1C | inconclusive: 0.282 µM [inhibitor, full curve]
COCCn1c(SC(C)C(=O)Nc2ncc(Cl)cc2Cl)nc2ccccc21 (stereo not given) | inconclusive: 0.0355 µM [inhibitor, full curve, poor fit]
CC(C)c1ccc(S(=O)(=O)/N=C2/C=C(Sc3ncn[nH]3)C(=O)c3ccccc32)cc1 | inconclusive: 8.91 µM [inhibitor, full curve]
O=C(NC(Cc1c[nH]c2ccccc12)C(=O)Nc1ccc(OC(F)(F)F)cc1)c1cccs1 (stereo not given) | inconclusive: 39.8 µM [activator, partial curve]
C=CCN=c1scc(-c2ccccc2)n1/N=C/c1ccccn1 | inconclusive: 35.5 µM [activator, partial curve]
COc1ccc(-c2cc(C#N)nc(N3CCN(C)CC3)n2)cc1 | inconclusive: 35.5 µM [activator, partial curve]
O=C(N/N=C/c1cc2c3c(c1O)CCCN3CCC2)c1ccccc1O | inconclusive: 3.98 µM [inhibitor, full curve]
CCN=c1scc(-c2ccccc2)n1/N=C/c1ccccn1 | inconclusive: 39.8 µM [activator, single point]
COc1cccc(CNc2cccc3cccnc23)c1O | inconclusive: 35.5 µM [inhibitor, partial curve, poor fit]
CC(=O)c1ccc(-n2c(SCC(=O)c3c[nH]c4ccccc34)nc3ccccc3c2=O)cc1 | inconclusive: 39.8 µM [activator, partial curve]
CC12CCC(C(=O)NC(c3ccccc3)c3ccccc3)(OC1=O)C2(C)C (stereo not given) | inconclusive: 22.4 µM [activator, partial curve, poor fit]
CCN1C(=O)c2cccc3c(S(=O)(=O)N(C(=O)c4ccncc4)c4ccc(OC)cc4)ccc1c23 | inconclusive: 28.2 µM [activator, partial curve]
O=C(N/N=C\c1ccc([N+](=O)[O-])s1)c1cncc(Br)c1 | inconclusive: 11.2 µM [inhibitor, partial curve]
O=C(NCc1ccco1)C1CCN(Cc2ccc(F)cc2)CC1 | inconclusive: 39.8 µM [activator, partial curve]

A draw from above in order of SMILES length, falling.
Compound | Potency
CCN1C(=O)c2cccc3c(S(=O)(=O)N(C(=O)c4ccncc4)c4ccc(OC)cc4)ccc1c23 | inconclusive: 28.2 µM [activator, partial curve]
CC(=O)c1ccc(-n2c(SCC(=O)c3c[nH]c4ccccc34)nc3ccccc3c2=O)cc1 | inconclusive: 39.8 µM [activator, partial curve]
COCCn1c(SC(C)C(=O)Nc2ncc(Cl)cc2Cl)nc2ccccc21 (stereo not given) | inconclusive: 0.0355 µM [inhibitor, full curve, poor fit]
